This is an account of results in publication PMC8583962.

No constants are given. Whether binding was seen depends on the method and setting. In cells and extracts the contact can be indirect.

This assay concerns the target T1, NAA10 (endogenous) (human (endogenous in HEK293, HeLa, HAP1)), P41227.
T1 chain: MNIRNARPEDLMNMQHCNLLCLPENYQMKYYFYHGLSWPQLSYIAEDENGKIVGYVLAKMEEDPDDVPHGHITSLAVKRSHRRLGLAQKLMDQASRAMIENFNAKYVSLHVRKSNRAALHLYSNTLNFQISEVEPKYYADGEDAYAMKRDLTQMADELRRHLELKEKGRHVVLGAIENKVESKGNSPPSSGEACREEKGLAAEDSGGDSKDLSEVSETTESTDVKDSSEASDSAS
Briefly: co-IP; IP of endogenous NAA10 with an anti-NAA10 antibody from HAP1-WT and HAP1-FIH-KO lysates on Dynabeads, washed three times in IPH lysis buffer; rabbit IgG as control IP; immunoblot for NAA15 and FIH. Particulars: remark: other sources report otherwise. (In general: A western blot detects proteins with antibodies after separation by electrophoresis.)

B1: factor inhibiting HIF-1α (FIH), Q9NWT6 1-349 (enzyme)
chain: MAATAAEAVASGSGEPREEAGALGPAWDESQLRSYSFPTRPIPRLSQSDPRAEELIENEEPVVLTDTNLVYPALKWDLEYLQENIGNGDFSVYSASTHKFLYYDEKKMANFQNFKPRSNREEMKFHEFVEKLQDIQQRGGEERLYLQQTLNDTVGRKIVMDFLGFNWNWINKQQGKRGWGQLTSNLLLIGMEGNVTPAHYDEQQNFFAQIKGYKRCILFPPDQFECLYPYPVHHPCDRQSQVDFDNPDYERFPNFQNVVGYETVVGPGDVLYIPMYWWHHIESLLNGGITITVNFWYKGAPTPKRIEYPLKAHQKVAIMRNIEKMLGEALGNPQEVGPLLNTMIKGRYN
Turning to B1, the binding result is reported as “no binding”.
